Results on 1 molecule are retold here after PMC12442443, “Identifying interactions between TDP‐43's N‐terminal and RNA‐binding domains” (Protein Science : A Publication of the Protein Society, 2024).

These are yes or no findings as the source states them, for the method shown. Some entries that bind do so weakly or less than the wild type.

For the experiment, the target named is TDP-43(102-260), tandem RNA recognition motifs RRM1 and RRM2 of TAR DNA-binding Protein 43 kilodaltons (human). The experiment can be described thus: native gel or EMSA; 4-16% Bis-Tris native gel, Coomassie; 8.125 uM RRM alone or with NTD(1-77) at 0.5:1, 1:1 and 2:1 (NTD:RRM); incubated 10 min at 25 C in 300 mM NaCl, 40 mM HEPES pH 6.5, 4 mM DTT; full shift only at 2:1; also repeated with added RNA; both purified. A general note: In EMSA bound probe runs differently from free probe, usually more slowly.

B1: TDP-43(1-77), structured portion of the N-terminal domain of TAR DNA-binding Protein 43 kilodaltons (domain or fragment)
chain: MSEYIRVTEDENDEPIEIPSEDDGTVLLSTVTAQFPGACGLRYRNPVSQCMRGVRLVEGILHAPDAGWGNLVYVVNY
On to B1, for which the binding result is reported as “binds weakly”.
